According to patent publication US20220356246A1:
Results are given in words; binding and its absence hold for the method and conditions named. Some entries that bind do so weakly or less than the wild type.

Chains of the proteins cited; added tags and fusions are not shown. Residues count along the entry.
UniProt Q9Z139, residues 30-403: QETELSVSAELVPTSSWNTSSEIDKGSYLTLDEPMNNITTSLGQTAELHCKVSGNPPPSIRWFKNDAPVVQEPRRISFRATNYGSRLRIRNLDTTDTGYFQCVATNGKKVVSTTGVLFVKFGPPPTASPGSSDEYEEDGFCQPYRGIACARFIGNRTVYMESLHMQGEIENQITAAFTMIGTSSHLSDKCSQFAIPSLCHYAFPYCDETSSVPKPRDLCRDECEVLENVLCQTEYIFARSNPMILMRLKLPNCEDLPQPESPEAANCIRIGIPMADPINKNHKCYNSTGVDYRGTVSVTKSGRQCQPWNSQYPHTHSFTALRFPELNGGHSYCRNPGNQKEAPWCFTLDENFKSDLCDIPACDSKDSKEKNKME

Key:
[1] = biological target: mouse ROR1 (coated on ELISA plate) (mouse) (UniProt Q9Z139); test: ELISA, plate coated with mouse ROR1, IgG1 detected with HRP anti-human IgG
[2] = biological target: mouse ROR1 (coated on ELISA plate) (mouse) (UniProt Q9Z139); test: ELISA (FIG. 2B legend)

binding [1] | binding [2] | Binder
binds | binds | anti-ROR1 antibody clone C3 (antibody, V domains shown) VH: QVQLQESGPGLVKPSETLSLTCTVSGGSISSYYWSWIRQLPGKGLEWIGYMHYSGSTSYNPSLKGRLTISVDTSTNQFSLKLGSVTAADTAVYYCARYYYHDSSGYYSYFDYWGQGTLVTVSS VL: EIVLTQSPGTLSLSPGERATLSCRASQSVSSYLAWYQQKAGQAPRLLIYDASNRASGIPARFSGSGSGTDFTLTISSLEPEDFAVYYCQQRSNWPPTFGGGTKVEIK
binds | binds | anti-ROR1 antibody clone G6 (antibody, V domains shown) VH: EVQLVESGGGVVQPGGSLRLSCAASGFTFDDYAMHWVRQAPGKGLEWVSLISGDGGSTYYADSVKGRFTISRDNAKNSLYLQMNSLRAEDTAVYYCARDNWNDVYYYYGMDVWGQGTTVTVSS VL: DIQLTQSPSSLSASIGDTVTISCQASRDISDYLNWYQHKPGKAPKLLIYDASNLATGVPSRFSGSGSGTDFTLTIKSLQPEDVATYFCQQDDLLPLTFGGGTKVDIK
